From patent US20040253243
pIC50, pKd: −log10 of the molar value. For at least one entry, the source does not settle the construct or the ends of the probe.

Sequences of proteins named here, by UniProt entry; tags and fusion partners are left off. A line that says so, or that is headed by a name, gives the form on record, which may keep a tag or linker.
UniProt P61812, other isoform, or with tags, fused parts or gaps: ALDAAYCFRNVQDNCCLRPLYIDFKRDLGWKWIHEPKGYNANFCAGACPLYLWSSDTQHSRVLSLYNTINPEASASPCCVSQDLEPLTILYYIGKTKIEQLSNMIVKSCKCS

Each sequence was assayed against TGF-beta2 (mature, wild type) (Homo sapiens) (UniProt P61812) (assay: filter binding). Conditions: 2'-F C and U, 2'-OH purines, 3'-3T; DPBS, 1 mM MgCl2, room temperature; purified recombinant protein; variant of AMX(71)_A8.

Sequence | pKd
AGGGAAUAUUAUAGAGUAUGUAUAGCUAUACCAU [ARC282 (CW128.10.U)] | 9.21

Same assay, conditions: 2'-F C and U, 2'-OH purines, 3'-3T; DPBS, 1 mM MgCl2, room temperature; purified recombinant protein; variant of AMX(71)_C11

Sequence | pKd
AUAGAGCAUUAUAGAGUAUGUAUAGCUAUACUAU [CW128.10.F (AMX(71)_C11)] | 8.44

Same assay, conditions: 2'-F C and U, 2'-OH purines, 3'-3T; DPBS, 1 mM MgCl2, room temperature; purified recombinant protein; variant of ARC230 (S5R8-45)

Sequence | pKd
GACAGAGUAUUAUAGAGUAUGUAUAGCUAUACUGU [ARC284 (CW128.11.R)] | 9.96

Same assay, conditions: 2'-F C and U, 2'-OH purines, 3'-3T; DPBS, 1 mM MgCl2, room temperature; purified recombinant protein; variant of ARC235 (S5CR8-45 full length)

Sequence | pKd
ACAGAGUAUUAUAGAGUAUGUAUAGCUAUACUGUC [ARC283 (CW128.10.M)] | 8.90

Same assay, conditions: 2'-F C and U, 2'-OH purines, 3'-3T; DPBS, 1 mM MgCl2, room temperature; purified recombinant protein; variant of S5CR12-15

Sequence | pKd
AAGGAGUAUUAUAGAGUAUGUAUAGCUAUACCAU [ARC281 (CW128.10.R)] | 8.85

Same assay, conditions: 2'-F pyrimidines, 2'-OH purines; DPBS, 1 mM MgCl2, room temperature; full length; purified recombinant protein

Sequence | pKd
GGGAGGACGAUGCGGACAGAGUAUUAUAGAGUAUGUAUAGCUAUACUGUCCAGACGACUCGCCCGA [ARC235 (S5CR8-45 full length)] | 9.28
GGGAGGACGAUGCGGGGAGGUUAUUACAGAGUCUGUAUAGCUGUACUCCCAGACGACUCGCCCGA [ARC236 (21a-21 full length)] | 9.12

Same assay, conditions: 2'-F pyrimidines, 2'-OH purines; purified recombinant protein

Sequence | binding result
GGGAGGACGAUGCGGAAAGAGUAUUAUAGAGUCUGUAUAGCUAUACUUUCAGACGACUCGCCCGA [AMX(71)_H7] | binds
GGGAGGACGAUGCGGAACGAAUAUUACAGAGUAUGUAUAGCUGUACGGUCAGACGACUCGCCCGA [ARC231 (S5CR8-14)] | binds
GGGAGGACGAUGCGGAAGGAAUAUUAUAGAGUAUGUAUAGCUAUACCAUCAGACGACUCGCCCGA [AMX(71)_H10] | binds
GGGAGGACGAUGCGGAAGGAGUAUUAUAGAGUAUGUAUAGCUAUACCAGACGACUCGCCCGA [S5CR12-12] | binds
GGGAGGACGAUGCGGAAGGAGUAUUAUAGAGUAUGUAUAGCUAUACCAUCAGACGACUCGCCCGA [S5CR12-15] | binds
GGGAGGACGAUGCGGACAGAGCAUUAUAGAGUGUGUAUAGCUGUACUGUCAGACGACUCGCCCGA [AMX(71)_F11] | binds
GGGAGGACGAUGCGGACAGAGUAUUAUAGAGUAUGUAUAGCUAUACUAUCAGACGACUCGCCCAA [AMX(71)_F3] | binds
GGGAGGACGAUGCGGACAGAGUAUUAUAGAGUAUGUAUAGCUAUACUGCAGACGACUCGCCCGA [S5R12-12] | binds
GGGAGGACGAUGCGGACAGAGUAUUAUAGAGUAUGUAUAGCUAUACUGCCAGACGACUCGCCCGA [S5R12-33] | binds
GGGAGGACGAUGCGGACAGAGUAUUAUAGAGUAUGUGUAGCUAUACCGUCAGACGACUCGCCCGA [AMX(71)_G9] | binds
GGGAGGACGAUGCGGAGAAGAGUAUUAUAGAGUCUGUAUAGCUAUACUUCAGACGACUCGCCCGA [AMX(71)_H9] | binds
GGGAGGACGAUGCGGAGAGAUUAUUAUAGAGUAUGUAUAGCUGUACUGCCAGACGACUCGCCCGA [AMX(74)_G6] | binds
GGGAGGACGAUGCGGAGGGAAUAUUAUAGAGUAUGUAUAGCUAUACCAUCAGACGACUCGCCCGA [AMX(71)_A8] | binds
GGGAGGACGAUGCGGAGUGAGUAUUAUAGAGUAUGUAUAGCUAUACACAUCAGACGACUCGCCCGA [S5CR8-28] | binds
GGGAGGACGAUGCGGAUAGAGCAUUAUAGAGUAUGUAUAGCUAUACUAUCAGACGACUCGCCCGA [AMX(71)_C11] | binds
GGGAGGACGAUGCGGAUCGAAUAUUAUAGAGUAUGUAUAGCUAUACGGUCAGACGACUCGCCCGA [AMX(71)_A11] | binds
GGGAGGACGAUGCGGAUCGAGUAUUAUAGAGUAUGUAUAGCUAUACGAUCAGACGACUCGCCCGA [S5CR12-27] | binds
GGGAGGACGAUGCGGAUCGAGUAUUAUAGAGUAUGUAUAGCUAUACUAUCAGACGACUCGCCCGA [AMX(71)_F7] | binds
GGGAGGACGAUGCGGAUGGAGUAUUAUAGAGUAUGUAUAGCUAUACCAUCAGACGACUCGCCCGA [AMX(71)_B11] | binds
GGGAGGACGAUGCGGGAAGAGUAUUACAGAGUAUGUAUAGCUGUACUGCCAGACGACUCGCCCGA [AMX(74)_D3] | binds
GGGAGGACGAUGCGGGCAAAGUAUUGUAGAGUAUGCAUAGCUAUAUUGCCAGACGACUCGCCCGA [AMX(74)_E6] | binds
GGGAGGACGAUGCGGGCAGAGUAUUAUAGAGUACGUAUAGCUAUACUGUCAGACGACUCGCCCGA [AMX(71)_B7] | binds
GGGAGGACGAUGCGGGCAGAGUAUUAUAGAGUAUGUAUAGCUAUACUGUCAGACGACUCGCCCGA [AMX(71)_A9] | binds

Sequence | binding result
GGGAGGACGAUGCGGGCGGAAUAUUAUAGAGUAUGGAUAGCUAUACCGUCAGACGACUCGCCCGA [S5CR12-14] | binds
GGGAGGACGAUGCGGGCGGCGUUGUUUAGUCGUAUGUAUAUACUAAGUCCGCCAGACGACUCGCCCGA [21a-4] | binds
GGGAGGACGAUGCGGGGAGAAUAUUACAGAGUAUGUAUAGCUGUACUGCCAGACGACUCGCCCGA [AMX(74)_A1] | binds
GGGAGGACGAUGCGGGGAGAAUAUUACAGAGUAUGUAUAGCUGUACUUGCCAGACGACUCGCCCGA [AMX(74)_C3] | binds
GGGAGGACGAUGCGGGGAGAGUAUUAUAGAGUAUGUAUAGCUAUACUGCCAGACGACUCGCCCGA [AMX(74)_G3] | binds
GGGAGGACGAUGCGGGGAGAUUAUUAUAGAGUAUGUAUAGCUAUACUGCCAGACGACUCGCCCGA [AMX(74)_B3] | binds
GGGAGGACGAUGCGGGGAGGAUGCGGAAGUAACGUUGUAGUAAAAUUCCUUCCAGACGACUCGCCCGA [14i-1] | binds
GGGAGGACGAUGCGGGUAGAAUAUUACAGAGUAUGUAUAGCUGUACUGCCAGACGACUCGCCCGA [AMX(74)_H1] | binds
GGGAGGACGAUGCGGGUAGAAUAUUAUAGAGUCUGUAUAGCUAUACUGCCAGACGACUCGCCCGA [AMX(74)_E2] | binds
GGGAGGACGAUGCGGGUAGAUUAUUACAGAGUCUGUAUAGCUGUACUGCCAGACGACUCGCCCGA [AMX(74)_A3] | binds
GGGAGGACGAUGCGGGUGGAGUAUUAUAGAGUAUGUAUAGCUAUACUAUCAGACGACUCGCCCAA [AMX(71)_G8] | binds
GGGAGGACGAUGCGGUAAGAGUAUUACAGAGUAUGUAUAGCUGUACUUGCCAGACGACUCGCCCGA [AMX(74)_A2] | binds
GGGAGGACGAUGCGGUAGAGUAUUAUAGAGUAUGUAUAGCUAUACACUCAGACGACUCGCCCAA [AMX(71)_D9] | binds
GGGAGGACGAUGCGGUAGAGUAUUAUAGAGUAUGUAUAGCUAUACCAUCAGACGACUCGCCCGA [AMX(71)_H12] | binds
GGGAGGACGAUGCGGUCCGCAUUAUCUUCUACGUUACAUAUACUAUCUCUGUCAGACGACUCGCCCGA [AMX(71)_B3] | binds
GGGAGGACGAUGCGGUCGGAGUAUUAUAGAGUAUGUAUAGCUAAACCGUCAGACGACUCGCCCGA [AMX(71)_D11] | binds
GGGAGGACGAUGCGGUGAGAAUAUUACAGAGUAUGUAUAGCUGUACUUGCCAGACGACUCGCCCGA [AMX(74)_E4] | binds
GGGAGGACGAUGCGGUGAGAAUAUUAUAGAGUAUGUAUAGCUAUACUCGCCAGACGACUCGCCCAA [AMX(74)_F4] | binds
GGGAGGACGAUGCGGUGGGAAUAUUAUAGAGUCUGUAUAGCUAUACCCUCAGACGACUCGCCCGA [AMX(71)_G7] | binds
GGGAGGACGAUGCGGUGUGAAUAUUAUAGAGUCUGUAUAGCUAUACCACCAGACGACUCGCCCGA [AMX(74)_F1] | binds
GGGAGGACGAUGCGGUGUGAAUAUUAUAGAGUCUGUAUAGCUAUACCAUCAGACGACUCGCCCGA [AMX(71)_A10] | binds
GGGAGGACGAUGGGGAUCGAGUAUUAUAGAGUCUGUAUAGCUAUACGAUCAGACGACUCGCCCGA [AMX(71)_B9] | binds

Same assay, conditions: 5'-NH2, 2'-F all C and U, 2'-OH purines, 3'-3T; ±0.5, unit implied; 50 mM Hepes pH 7.4, 1 mM MgCl2, 1 mM CaCl2, room temperature; purified recombinant protein; variant of ARC77

Sequence | pKd
GGAGGUUAUUACAGAGUCUGUAUAGCUGUACUCC [ARC78] | 8.40

Same assay, conditions: NH2-mGmGmGmGfUfUAfUfUmAfCmAmGmAmGfUfCfUGfUAfUAmGfCfUmGfUmAfCfCfC-3T (m 2'-OMe, f 2'-F); ±0.4, unit implied; 50 mM Hepes pH 7.4, 1 mM MgCl2, 1 mM CaCl2, room temperature; purified recombinant protein; variant of ARC77

Sequence | pKd
GGGGUUAUUACAGAGUCUGUAUAGCUGUACCC [ARC81] | 8.29

Same assay, conditions: mGmGmAmGmGfUfUAfUfUmAfCmAmGmAmGfUfCfUGfUAfUAmGfCfUmGfUmAfCfUfCfc-3T (m 2'-OMe, f 2'-F); purified recombinant protein; variant of ARC77

Sequence | pKd
GGAGGUUAUUACAGAGUCUGUAUAGCUGUACUCC [ARC79] | 9.00

The sequences below were run against TGF-beta2 (mature, wild type) (Homo sapiens) (UniProt P61812) (assay: activity in cells). Conditions: 5'-NH2, 2'-F all C and U, 2'-OH purines, 3'-3T; inhibits antiproliferative effect of 50 pg/ml TGF-beta2 on MLEC; purified recombinant protein; variant of ARC77.

Sequence | functional effect of the aptamer
GGAGGUUAUUACAGAGUCUGUAUAGCUGUACUCC [ARC78] | active

Same assay, conditions: NH2-mGmGmGmGfUfUAfUfUmAfCmAmGmAmGfUfCfUGfUAfUAmGfCfUmGfUmAfCfCfC-3T (m 2'-OMe, f 2'-F); reverses TGF-beta2 inhibition of MLEC proliferation; purified recombinant protein; variant of ARC77; dose not given here

Sequence | functional effect of the aptamer
GGGGUUAUUACAGAGUCUGUAUAGCUGUACCC [ARC81] | active

Same assay, conditions: mGmGmAmGmGfUfUAfUfUmAfCmAmGmAmGfUfCfUGfUAfUAmGfCfUmGfUmAfCfUfCfc-3T (m 2'-OMe, f 2'-F); cell IC50; purified recombinant protein; variant of ARC77

Sequence | pIC50
GGAGGUUAUUACAGAGUCUGUAUAGCUGUACUCC [ARC79] | 8.00
